The target in one test is T1, HA-AFF4 (1–300) (human) (UniProt Q9UHB7).
T1 sequence: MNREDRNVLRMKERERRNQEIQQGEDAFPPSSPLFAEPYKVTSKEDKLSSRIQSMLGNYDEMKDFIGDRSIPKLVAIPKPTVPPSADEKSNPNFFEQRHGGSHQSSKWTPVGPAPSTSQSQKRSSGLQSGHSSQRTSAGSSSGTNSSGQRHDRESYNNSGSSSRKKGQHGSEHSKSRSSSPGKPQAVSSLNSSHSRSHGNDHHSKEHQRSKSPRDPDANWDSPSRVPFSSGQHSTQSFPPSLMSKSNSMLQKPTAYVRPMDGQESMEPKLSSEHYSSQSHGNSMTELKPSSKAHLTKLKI
In words: affinity purification with mass spectrometry; HEK293T expressing HA-AFF4 (full length or 1-300); lysate in 0.15% Triton X-100, 20 mM Tris-HCl pH 7.6, 200 mM NaCl, 0.72 mM EDTA, 10% glycerol; IP with anti-HA antibody and protein A beads at 4 °C; bands excised from SDS-PAGE, tandem MS; control cells without HA-AFF4.

The chains behind the UniProt entries cited, without tags or fusion partners.
UniProt P50750: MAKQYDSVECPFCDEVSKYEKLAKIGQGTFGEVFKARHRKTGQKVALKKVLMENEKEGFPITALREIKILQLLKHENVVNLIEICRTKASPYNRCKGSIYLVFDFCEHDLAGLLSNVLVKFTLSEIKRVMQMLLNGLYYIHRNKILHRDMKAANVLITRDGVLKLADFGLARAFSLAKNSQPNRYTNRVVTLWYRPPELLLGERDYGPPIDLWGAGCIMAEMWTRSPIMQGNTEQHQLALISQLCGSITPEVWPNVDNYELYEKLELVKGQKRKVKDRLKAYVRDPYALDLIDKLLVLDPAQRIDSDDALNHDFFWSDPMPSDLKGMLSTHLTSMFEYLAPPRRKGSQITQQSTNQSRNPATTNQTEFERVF
UniProt P35637: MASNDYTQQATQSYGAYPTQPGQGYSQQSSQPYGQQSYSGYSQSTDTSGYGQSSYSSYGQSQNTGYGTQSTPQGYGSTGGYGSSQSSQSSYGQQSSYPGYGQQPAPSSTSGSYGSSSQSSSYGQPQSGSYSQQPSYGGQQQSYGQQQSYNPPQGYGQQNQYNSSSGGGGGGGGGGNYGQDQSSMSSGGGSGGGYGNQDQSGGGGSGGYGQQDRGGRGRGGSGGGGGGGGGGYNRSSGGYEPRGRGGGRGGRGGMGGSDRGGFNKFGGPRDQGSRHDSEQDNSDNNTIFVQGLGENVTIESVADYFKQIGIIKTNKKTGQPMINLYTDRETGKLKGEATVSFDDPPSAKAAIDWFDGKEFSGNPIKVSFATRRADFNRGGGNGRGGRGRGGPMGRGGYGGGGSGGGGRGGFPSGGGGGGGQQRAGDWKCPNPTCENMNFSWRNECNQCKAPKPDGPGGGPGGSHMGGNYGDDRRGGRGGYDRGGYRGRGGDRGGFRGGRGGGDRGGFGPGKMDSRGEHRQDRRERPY

Test [1] deals with T2, full length HA-AFF4 (1–1163) (human) (UniProt Q9UHB7).
T2 sequence: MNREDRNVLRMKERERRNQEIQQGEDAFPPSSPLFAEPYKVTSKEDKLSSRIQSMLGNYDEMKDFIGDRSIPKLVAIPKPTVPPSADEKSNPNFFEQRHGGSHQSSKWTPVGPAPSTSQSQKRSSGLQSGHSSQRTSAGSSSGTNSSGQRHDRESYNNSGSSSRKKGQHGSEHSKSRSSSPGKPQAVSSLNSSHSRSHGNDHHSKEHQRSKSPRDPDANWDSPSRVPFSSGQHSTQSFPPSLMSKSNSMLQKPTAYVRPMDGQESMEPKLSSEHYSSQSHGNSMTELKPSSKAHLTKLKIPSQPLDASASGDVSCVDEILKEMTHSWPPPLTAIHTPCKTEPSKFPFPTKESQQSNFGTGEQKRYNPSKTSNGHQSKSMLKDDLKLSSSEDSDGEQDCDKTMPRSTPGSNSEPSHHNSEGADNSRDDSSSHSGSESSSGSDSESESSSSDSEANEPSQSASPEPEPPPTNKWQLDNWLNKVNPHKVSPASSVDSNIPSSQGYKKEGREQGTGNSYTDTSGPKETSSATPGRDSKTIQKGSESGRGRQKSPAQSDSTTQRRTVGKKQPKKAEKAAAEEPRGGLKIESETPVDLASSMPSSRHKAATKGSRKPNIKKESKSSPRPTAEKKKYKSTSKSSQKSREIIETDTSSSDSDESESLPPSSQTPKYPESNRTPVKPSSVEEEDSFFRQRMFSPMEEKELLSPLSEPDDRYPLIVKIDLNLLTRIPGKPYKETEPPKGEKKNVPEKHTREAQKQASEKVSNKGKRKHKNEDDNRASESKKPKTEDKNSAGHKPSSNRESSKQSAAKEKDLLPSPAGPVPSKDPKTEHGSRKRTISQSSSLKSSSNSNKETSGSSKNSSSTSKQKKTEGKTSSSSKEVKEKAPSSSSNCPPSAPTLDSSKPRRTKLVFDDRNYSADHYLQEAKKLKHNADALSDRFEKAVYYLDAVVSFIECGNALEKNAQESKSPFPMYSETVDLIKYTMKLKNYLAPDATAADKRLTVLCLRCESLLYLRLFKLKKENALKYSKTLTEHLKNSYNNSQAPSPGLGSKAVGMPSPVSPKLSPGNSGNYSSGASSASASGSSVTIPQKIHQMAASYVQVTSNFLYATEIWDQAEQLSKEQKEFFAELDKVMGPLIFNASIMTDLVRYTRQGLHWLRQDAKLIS
The test is described as above.

Results are given in words; binding and its absence hold for the method and conditions named. In cells and extracts the contact can be indirect. These calls come from enrichment with a bait or labelling near it, and not all partners need be listed. For some of these results: A no says only that the protein was not detected with the bait. Where a sequence is shown, tags or fusion partners need not be part of it.

With “Cdk9 (endogenous, HEK293T) (from UniProt P50750 1-372)”, the binding result (with HA-AFF4 (1–300) (human); in test [1]) was “binds” each time.
As for “Fused in Sarcoma, FUS (endogenous, HEK293T) (from UniProt P35637 1-526)”, the figures for the binding result (in the test with HA-AFF4 (1–300) (human); in test [1]) were “no binding” and “binds”, respectively.

(Values after PMC6593535.)
